The target in assay [1] is T1, RAD51C (human (endogenous in HeLa-K)) (UniProt O43502).
T1 sequence: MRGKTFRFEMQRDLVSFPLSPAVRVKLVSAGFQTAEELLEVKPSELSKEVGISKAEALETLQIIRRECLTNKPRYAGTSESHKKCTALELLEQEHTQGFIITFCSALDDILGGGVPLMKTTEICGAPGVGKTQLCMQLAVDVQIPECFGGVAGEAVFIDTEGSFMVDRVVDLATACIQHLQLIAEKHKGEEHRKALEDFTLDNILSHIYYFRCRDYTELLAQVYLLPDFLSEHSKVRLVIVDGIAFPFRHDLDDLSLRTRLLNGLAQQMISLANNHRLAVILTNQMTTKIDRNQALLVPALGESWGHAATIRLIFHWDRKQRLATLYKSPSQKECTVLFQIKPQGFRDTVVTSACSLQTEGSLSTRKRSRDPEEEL
Briefly: co-IP; endogenous proteins in HeLa-K extracts; lysis buffer 50 mM HEPES, 130 mM NaCl, 1 mM DTT, 1% NP-40; primary antibody overnight at 4°C, Protein G-agarose beads 4 h at 4°C; control conditions, and DOX with co-treatment with ATM inhibitor (KU55933) or IPZ.

Protein sequences, listed by entry. Tags and fused reporters are not part of them.
UniProt Q14789: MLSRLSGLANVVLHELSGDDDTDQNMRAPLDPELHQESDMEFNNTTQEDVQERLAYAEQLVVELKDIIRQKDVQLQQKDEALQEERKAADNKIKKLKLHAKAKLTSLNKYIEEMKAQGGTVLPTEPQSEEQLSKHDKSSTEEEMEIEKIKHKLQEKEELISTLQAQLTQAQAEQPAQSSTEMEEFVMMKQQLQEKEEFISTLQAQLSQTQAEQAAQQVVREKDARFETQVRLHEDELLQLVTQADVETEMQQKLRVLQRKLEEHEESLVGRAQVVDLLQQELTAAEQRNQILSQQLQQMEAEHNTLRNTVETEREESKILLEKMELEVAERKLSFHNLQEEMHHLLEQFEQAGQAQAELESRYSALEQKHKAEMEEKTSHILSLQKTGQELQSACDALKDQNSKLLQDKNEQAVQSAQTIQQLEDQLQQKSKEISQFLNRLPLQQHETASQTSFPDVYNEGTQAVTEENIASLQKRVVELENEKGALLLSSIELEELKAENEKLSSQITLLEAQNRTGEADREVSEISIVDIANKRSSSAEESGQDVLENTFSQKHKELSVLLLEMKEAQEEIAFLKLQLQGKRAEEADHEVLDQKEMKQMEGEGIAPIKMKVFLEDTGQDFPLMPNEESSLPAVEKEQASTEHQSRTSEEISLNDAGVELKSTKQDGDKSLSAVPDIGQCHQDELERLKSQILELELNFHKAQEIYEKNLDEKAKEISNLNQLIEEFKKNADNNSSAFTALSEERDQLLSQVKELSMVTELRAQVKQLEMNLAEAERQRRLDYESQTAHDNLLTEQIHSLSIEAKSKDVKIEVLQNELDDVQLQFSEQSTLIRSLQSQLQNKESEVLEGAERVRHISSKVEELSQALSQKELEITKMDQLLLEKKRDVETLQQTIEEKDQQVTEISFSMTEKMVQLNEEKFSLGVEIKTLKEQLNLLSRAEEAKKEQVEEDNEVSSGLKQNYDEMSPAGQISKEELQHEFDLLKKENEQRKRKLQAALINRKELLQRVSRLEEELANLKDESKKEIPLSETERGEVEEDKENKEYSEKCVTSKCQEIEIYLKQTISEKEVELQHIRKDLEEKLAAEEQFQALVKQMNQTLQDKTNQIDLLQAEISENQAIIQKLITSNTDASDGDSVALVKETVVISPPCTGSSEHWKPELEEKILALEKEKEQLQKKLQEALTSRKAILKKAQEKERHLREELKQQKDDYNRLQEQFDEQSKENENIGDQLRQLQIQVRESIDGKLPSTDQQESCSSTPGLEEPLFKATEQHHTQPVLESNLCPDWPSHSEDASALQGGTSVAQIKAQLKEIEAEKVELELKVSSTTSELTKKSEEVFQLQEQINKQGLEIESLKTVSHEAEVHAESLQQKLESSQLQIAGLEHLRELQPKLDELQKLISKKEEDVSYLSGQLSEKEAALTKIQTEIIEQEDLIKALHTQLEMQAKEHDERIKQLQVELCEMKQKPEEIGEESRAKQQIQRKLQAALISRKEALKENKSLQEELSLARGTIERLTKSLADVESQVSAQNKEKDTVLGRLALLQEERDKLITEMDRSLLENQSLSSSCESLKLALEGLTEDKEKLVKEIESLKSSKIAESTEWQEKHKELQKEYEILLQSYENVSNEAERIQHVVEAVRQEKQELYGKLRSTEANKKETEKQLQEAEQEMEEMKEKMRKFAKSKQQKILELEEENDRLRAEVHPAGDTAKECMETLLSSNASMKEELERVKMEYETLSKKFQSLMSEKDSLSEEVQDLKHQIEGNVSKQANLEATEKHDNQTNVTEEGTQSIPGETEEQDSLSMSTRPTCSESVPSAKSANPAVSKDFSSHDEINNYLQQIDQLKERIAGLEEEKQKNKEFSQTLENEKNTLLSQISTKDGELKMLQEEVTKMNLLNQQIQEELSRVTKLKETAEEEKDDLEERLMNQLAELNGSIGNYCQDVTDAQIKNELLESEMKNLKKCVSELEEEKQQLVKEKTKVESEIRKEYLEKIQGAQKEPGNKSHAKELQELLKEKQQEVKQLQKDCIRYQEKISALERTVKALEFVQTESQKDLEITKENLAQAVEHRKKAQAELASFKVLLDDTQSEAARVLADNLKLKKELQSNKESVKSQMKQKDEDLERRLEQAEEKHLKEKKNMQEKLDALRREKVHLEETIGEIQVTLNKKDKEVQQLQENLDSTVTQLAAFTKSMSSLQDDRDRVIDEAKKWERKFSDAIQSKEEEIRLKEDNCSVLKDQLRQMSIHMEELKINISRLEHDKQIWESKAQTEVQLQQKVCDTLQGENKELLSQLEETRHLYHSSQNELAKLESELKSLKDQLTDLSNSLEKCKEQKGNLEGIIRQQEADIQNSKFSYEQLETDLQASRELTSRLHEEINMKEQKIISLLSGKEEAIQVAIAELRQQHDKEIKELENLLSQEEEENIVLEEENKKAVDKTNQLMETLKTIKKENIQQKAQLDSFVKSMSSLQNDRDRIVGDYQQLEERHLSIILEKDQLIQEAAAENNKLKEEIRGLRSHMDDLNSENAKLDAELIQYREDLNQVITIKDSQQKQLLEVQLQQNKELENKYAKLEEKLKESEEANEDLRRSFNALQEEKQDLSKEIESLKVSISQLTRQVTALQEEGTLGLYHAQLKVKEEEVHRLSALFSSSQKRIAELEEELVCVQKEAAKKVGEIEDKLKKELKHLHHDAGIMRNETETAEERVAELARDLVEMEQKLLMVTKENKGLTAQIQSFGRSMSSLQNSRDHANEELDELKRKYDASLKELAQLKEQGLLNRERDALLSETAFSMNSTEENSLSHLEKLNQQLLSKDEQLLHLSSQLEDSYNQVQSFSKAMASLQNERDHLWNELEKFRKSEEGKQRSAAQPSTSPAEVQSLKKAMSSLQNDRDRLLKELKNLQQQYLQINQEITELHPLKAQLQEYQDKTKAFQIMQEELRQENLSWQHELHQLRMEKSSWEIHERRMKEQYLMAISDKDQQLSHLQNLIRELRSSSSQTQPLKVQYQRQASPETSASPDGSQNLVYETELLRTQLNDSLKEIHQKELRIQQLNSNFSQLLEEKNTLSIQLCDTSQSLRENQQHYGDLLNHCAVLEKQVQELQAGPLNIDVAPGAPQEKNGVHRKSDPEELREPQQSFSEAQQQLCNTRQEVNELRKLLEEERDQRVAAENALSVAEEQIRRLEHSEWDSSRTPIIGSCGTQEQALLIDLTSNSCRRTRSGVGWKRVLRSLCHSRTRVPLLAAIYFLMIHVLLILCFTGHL

For assay [2], the target named is T1, RAD51C (human (endogenous in HeLa-K)). Put plainly: condition: only cells treated with DOX (40 μM, 3 h); co-IP; as a1, but HeLa-K cells treated with DOX alone (DSB induction) before lysis.

No constants are given. Whether binding was seen depends on the method and setting. Binding seen in cells or lysates may run through a third protein. Some binding calls cover weakened binding; strength is not graded here.

Take “giantin (GOLGB1) (from UniProt Q14789 1-3259)”: the binding result in assay [1] is given as “binds”; in assay [2], “no binding”.

Source of the values: publication PMC13411647.
